For the data set, the target named is T1, PbrR (Cupriavidus metallidurans CH34 (plasmid pMOL30)) (UniProt Q58AJ5).
T1 sequence (looked up): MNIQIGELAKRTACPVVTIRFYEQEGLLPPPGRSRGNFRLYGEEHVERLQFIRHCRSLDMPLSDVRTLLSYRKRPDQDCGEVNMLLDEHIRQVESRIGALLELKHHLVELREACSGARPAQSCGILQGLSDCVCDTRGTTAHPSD
Briefly: EMSA. The following applies: Pb(II), concentration not in material; recombinant protein; residues 1-145; protein details: thioredoxin-S tag removed with enterokinase; label: 32P; probe letters rebuilt from the primers and the genome.

The exact form of at least one protein or probe is not confirmed. A weaker result is weaker than the reference pair of the same experiment. At least one verdict rests on a figure or table, not on a statement of the authors. Tags and fusion partners may be left off the protein sequences shown.

For the sequence “GCGAATGGTCACCACCGGGCATGCGGTGCGCTTGGCAAGCTCGCCGATCTGGATATTCATGGCGTCGGATGGGAGATGTCTTGACTCTATAGTAACTAGAGGGTGTTAAATCGGCAACGCGAGATGAATACACACAAGGGGTTGCCATGAGCGAATGTGGCTCGAAGGGATGTGGCTGCGCTTCCGTTGCGACGCGCAACCCAGAACCGAGCACGGTTGGCGCGGGGCTGAAGCAGGCGCGCTACCGAATCGAAAACATGGACTGTCCGACCGAAGAGGCGCTGATTCGCGACAAGC (double strand) [PpbrA 296 bp PCR product]”, the binding result is recorded as “binds more weakly”.

(Values after article PMC3431237.)
